Results as given in paper PMC12137850.
No constants are given. Whether binding was seen depends on the method and setting. In cells and extracts the contact can be indirect. A yes stands for co-enrichment or nearness to the bait. Other partners may have been found. Sequences can lack the tags named with a protein.

By UniProt entry, the sequences of proteins in these tests, tags left out. Residues count along the entry.
UniProt P05107, residues 23-769: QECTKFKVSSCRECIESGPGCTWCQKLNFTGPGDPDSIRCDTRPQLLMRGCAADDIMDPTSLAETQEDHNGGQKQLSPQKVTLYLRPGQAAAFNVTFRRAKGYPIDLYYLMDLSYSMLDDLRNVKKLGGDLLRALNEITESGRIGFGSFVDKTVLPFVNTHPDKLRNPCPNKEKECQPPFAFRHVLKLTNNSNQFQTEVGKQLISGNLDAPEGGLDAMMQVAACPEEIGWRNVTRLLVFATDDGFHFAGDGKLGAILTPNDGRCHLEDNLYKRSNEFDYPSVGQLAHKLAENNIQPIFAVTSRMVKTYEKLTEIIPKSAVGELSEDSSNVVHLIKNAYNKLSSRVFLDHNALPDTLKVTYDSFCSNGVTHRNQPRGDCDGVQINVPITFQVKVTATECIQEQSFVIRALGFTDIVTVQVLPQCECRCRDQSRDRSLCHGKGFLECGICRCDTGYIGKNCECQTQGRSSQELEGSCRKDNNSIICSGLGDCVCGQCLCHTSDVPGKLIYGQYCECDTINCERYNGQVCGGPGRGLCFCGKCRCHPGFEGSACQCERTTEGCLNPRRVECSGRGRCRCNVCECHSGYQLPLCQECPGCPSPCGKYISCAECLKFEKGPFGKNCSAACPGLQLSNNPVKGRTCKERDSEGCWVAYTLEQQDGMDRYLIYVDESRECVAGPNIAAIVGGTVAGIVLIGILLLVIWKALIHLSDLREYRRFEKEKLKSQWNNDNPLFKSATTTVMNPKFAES
UniProt P28907: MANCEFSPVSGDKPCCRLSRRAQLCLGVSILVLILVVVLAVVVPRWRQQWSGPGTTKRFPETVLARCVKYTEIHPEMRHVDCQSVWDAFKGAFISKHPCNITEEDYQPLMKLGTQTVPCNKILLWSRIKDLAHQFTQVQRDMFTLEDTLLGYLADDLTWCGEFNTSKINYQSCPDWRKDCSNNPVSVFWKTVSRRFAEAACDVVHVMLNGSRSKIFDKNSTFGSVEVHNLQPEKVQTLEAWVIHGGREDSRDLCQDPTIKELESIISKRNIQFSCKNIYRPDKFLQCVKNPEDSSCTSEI

T1: GFP-tagged CD151 (human) (UniProt P48509)
T1 sequence: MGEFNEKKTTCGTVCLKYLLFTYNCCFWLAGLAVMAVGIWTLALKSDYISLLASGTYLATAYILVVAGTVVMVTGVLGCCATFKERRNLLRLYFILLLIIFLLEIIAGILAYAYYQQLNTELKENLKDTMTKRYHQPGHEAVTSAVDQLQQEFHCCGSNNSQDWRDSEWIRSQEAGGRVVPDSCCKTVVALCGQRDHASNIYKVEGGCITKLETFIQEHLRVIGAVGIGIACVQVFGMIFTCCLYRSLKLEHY

B1: CD81 (protein, UniProt P60033 1-236)
chain: MGVEGCTKCIKYLLFVFNFVFWLAGGVILGVALWLRHDPQTTNLLYLELGDKPAPNTFYVGIYILIAVGAVMMFVGFLGCYGAIQESQCLLGTFFTCLVILFACEVAAGIWGFVNKDQIAKDVKQFYDQALQQAVVDDDANNAKAVVKTFHETLDCCGSSTLTALTTSVLKNNLCPSGSNIISNLFKEDCHQKIDDLFSGKLYLIGIAAIVVAVIMIFEMILSMVLCCGIRNSSVY
B2: integrin beta 7 (ITGB7) (protein, UniProt P26010 20-798)
chain: ELDAKIPSTGDATEWRNPHLSMLGSCQPAPSCQKCILSHPSCAWCKQLNFTASGEAEARRCARREELLARGCPLEELEEPRGQQEVLQDQPLSQGARGEGATQLAPQRVRVTLRPGEPQQLQVRFLRAEGYPVDLYYLMDLSYSMKDDLERVRQLGHALLVRLQEVTHSVRIGFGSFVDKTVLPFVSTVPSKLRHPCPTRLERCQSPFSFHHVLSLTGDAQAFEREVGRQSVSGNLDSPEGGFDAILQAALCQEQIGWRNVSRLLVFTSDDTFHTAGDGKLGGIFMPSDGHCHLDSNGLYSRSTEFDYPSVGQVAQALSAANIQPIFAVTSAALPVYQELSKLIPKSAVGELSEDSSNVVQLIMDAYNSLSSTVTLEHSSLPPGVHISYESQCEGPEKREGKAEDRGQCNHVRINQTVTFWVSLQATHCLPEPHLLRLRALGFSEELIVELHTLCDCNCSDTQPQAPHCSDGQGHLQCGVCSCAPGRLGRLCECSVAELSSPDLESGCRAPNGTGPLCSGKGHCQCGRCSCSGQSSGHLCECDDASCERHEGILCGGFGRCQCGVCHCHANRTGRACECSGDMDSCISPEGGLCSGHGRCKCNRCQCLDGYYGALCDQCPGCKTPCERHRDCAECGAFRTGPLATNCSTACAHTNVTLALAPILDDGWCKERTLDNQLFFFLVEDDARGTVVLRVRPQEKGADHTQAIVLGCVGGIVAVGLGLVLAYRLSVEIYDRREYSRFEKEQQQLNWKQDSNPLYKSAITTTINPRFQEADSPTL
B3: CD20 (MS4A1) (protein, UniProt P11836 1-297)
chain: MTTPRNSVNGTFPAEPMKGPIAMQSGPKPLFRRMSSLVGPTQSFFMRESKTLGAVQIMNGLFHIALGGLLMIPAGIYAPICVTVWYPLWGGIMYIISGSLLAATEKNSRKCLVKGKMIMNSLSLFAAISGMILSIMDILNIKISHFLKMESLNFIRAHTPYINIYNCEPANPSEKNSPSTQYCYSIQSLFLGILSVMLIFAFFQELVIAGIVENEWKRTCSRPKSNIVLLSAEEKKEQTIEIKEEVVGLTETSSQPKNEEDIEIIPIQEEEEEETETNFPEPPQDQESSPIENDSSP
B4: CD37 (protein, UniProt P11049 1-281)
chain: MSAQESCLSLIKYFLFVFNLFFFVLGSLIFCFGIWILIDKTSFVSFVGLAFVPLQIWSKVLAISGIFTMGIALLGCVGALKELRCLLGLYFGMLLLLFATQITLGILISTQRAQLERSLRDVVEKTIQKYGTNPEETAAEESWDYVQFQLRCCGWHYPQDWFQVLILRGNGSEAHRVPCSCYNLSATNDSTILDKVILPQLSRLGHLARSRHSADICAVPAESHIYREGCAQGLQKWLHNNLISIVGICLGVGLLELGFMTLSIFLCRNLDHVYNRLARYR

molecular target: T1, GFP-tagged CD151 (human); assay: affinity purification with mass spectrometry; GFP-Trap agarose beads on lysates (1% IGEPAL CA-630 in PBS, protease inhibitors, on ice) of BJAB cells expressing GFP-tagged CD151; enrichment over control beads; in-gel trypsin digest, LC-MS/MS, label-free quantification

Row | binding | Molecule
1 | binds | B1
2 | binds | B2
3 | binds | B3
4 | binds | B4

molecular target: T1, GFP-tagged CD151 (human); assay: as above; remark: another data set of the same source

Row | binding | Molecule
5 | binds | endogenous integrin beta 2 (ITGB2) (from UniProt P05107 23-769)
6 | binds | CD38 (from UniProt P28907 1-300)
7 | binds | integrin alpha 6 (ITGA6) (human (endogenous in BJAB))
